Values from PubChem BioAssay AID1259308 (NCATS, 2017).

- Screen: 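Candidate targets for better recombinant protein yield in mammalian cells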 (primary screen)
- Cell system: human HEK293 embryonic kidney cells stably expressing firefly luciferase (HEK-CMV-Luc2-Hygro)
- Reagents: single siRNA against human genes, 0.8 pmol siRNA per well
- Timing: 72 h
- Measurement: 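Luciferase light (ONE-Glo) measured on one replicate plate set and viability (CellTiter-Glo) on the other, scaled to a negative control siRNA, with robust z-scores and luciferase per cell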
- Reading the numbers: total luciferase, z-score: higher = more reporter protein produced
- Hit rule: 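Active when the median/MAD z-score for overall luciferase is greater than 3; a gene was taken forward for validation with new siRNAs if at least two of its three siRNAs passed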
- Meaning of the calls: active = raised luciferase; inactive = no rise
Here is an unselected part of about 59,000 reagents tested. Of all reagents, about 1,510 (2.6%) got an active call. 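Calls use total luciferase alone and ignore viability, so some active siRNAs may act by altering cell number.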 Entries without a mark were called inactive. The numbers tell different reagents against one gene apart. Further read-outs or replicates are left out here.

For ERV3-1 #1, the entry reads total luciferase, z-score 1.41.
Against ERV3-1 #2, the values are total luciferase, z-score 0.0747.
ERV3-1 #3 scored total luciferase, z-score -2.34.
DNMT3A #1 gave total luciferase, z-score 1.02.
Against DNMT3A #2, the entry reads total luciferase, z-score -0.727.
Knock-down of DNMT3A #3 gave: total luciferase, z-score -1.57.

Quoted from the entries so far, 2 entries:
DNMT3A #2 — total luciferase, z-score: -0.727
DNMT3A #3 — total luciferase, z-score: -1.57

Further entries follow:
RHOC #1 scored total luciferase, z-score 0.542.
For RHOC #2 the deposit lists total luciferase, z-score -0.578.
Depletion of RHOC #3 came out at: total luciferase, z-score 0.0938.
Knock-down of CROCC #1 gave: total luciferase, z-score 0.135.
CROCC #2 gave total luciferase, z-score 0.121.
CROCC #3 scored total luciferase, z-score 0.656.
